Results: PubChem BioAssay AID540303 (National Center for Advancing Translational Sciences (NCATS), 2011)
In all, about 330,000 compounds went through this assay and about 1,000 (0.3%) were called active. Inconclusive results, whose numbers are uncertain, are shown with a selection of clear calls. Calls follow the shape of the dose curve; as a rule, active = well fitted inhibition curve with a large enough effect; inconclusive = small, poorly fitted or top-dose-only effect; inactive = no such curve, though single readings can be large or run the other way; tested in mouse RAW 264.7 cells. A potency beside an inconclusive call is a rough fit, not a confirmed value.

Assay: qHTS for Inhibitors of Cell Surface uPA Generation; also: nearly all actives have a fitted effect of over 55% in size
Details: cell surface uPA generation assay; series mostly up to 38.3 µM; activity change, negative = inhibition: at the top concentration
Source text: The overall objective of this project is to perform a quantitative high throughput screen (qHTS) to identify novel compounds that inhibit the generation of cell surface urokinase activity. The urokinase plasminogen activator (uPA) is one of the two primary endogenous systems that mediate plasminogen activation into plasmin. Members of this system, including uPA and its receptor (uPAR), are overexpressed in several malignant tumors. This system plays a major role in adhesion, migration, invasion and metastasis of cancer cells. Small molecule inhibitors of the uPA system will serve as probes to understand the molecular mechanisms of the uPA cascade and better understanding the microenvironmental circumstances that facilitate the activation of plasminogen by uPA, and finally may provide novel candidate agents for anticancer drug therapy.
[…] […] Upon inhibition of the uPA activation cascade, the subsequent cell surface uPA activity-dependent translocation of LF into the cytoplasm is inhibited. ATP-Lite is used to measure intracellular ATP concentrations, which remain increased if LF entry into the cytoplasm is inhibited. This validation assay was performed using a small set of validation compounds.
NIH Chemical Genomics Center [NCGC]
NIH Molecular Libraries Probe Centers Network [MLPCN]
Assay Submitter (PI): Thomas Bugge, National Institute of Dental and Craniofacial Research, NIH
Cultured RAW 264.7 were dispensed into 1536-well clear bottom, white walled tissue culture plates at a density of 4000 cells/well and were incubated overnight (12-16 h) at 37 C in a 5% CO2 incubator. Serially diluted compounds in 23 nl DMSO were added to cells. […] Compound and reagent-treated plates were incubated for 24 h at 37 C in a 5% CO2 incubator. Perkin Elmer ATPlitetrade mark 1 step (3 ul) was then added to each well. Luminescence was detected using a Perkin Elmer ViewLuxtrade mark plate reader.
1.Dispensing RAW 264.7 cells into 1536-well, white walled tissue culture plates at a density of 4000 cells/well (4 uL).
2.Incubation at 37 C in a 5% CO2 incubator overnight.
3.Serially diluting compounds (1:5 serial dilution; 0.0024 uM to […] final concentration) in 23 nl DMSO.
5.Incubating the compound and reagent-treated plates for 24 hours at 37 C in a 5% CO2 incubator.
6.Adding ATP-Lite (3 ul).
7.Reading plates by ViewLux with an exposure length of 5 seconds.
% is scaled to controls: 0 for no effect and ±100 for the full control effect; potency is read from the fitted curve at half-maximal effect.

Structure (SMILES)	Potency	activity change, negative = inhibition
O=C(NC(=S)Nc1ccc(F)cc1)c1ccc2c(c1)OCCO2	inconclusive: 7.94 µM [inhibitor, single point]	
CCOc1ccccc1/C=C/c1cc(C(=O)O)c2ccccc2n1		inactive: -3.88%
COc1ccccc1/C=N/NC(=O)c1ccc(-c2ccccc2)cc1	inconclusive: 8.91 µM [inhibitor, single point]	
Cc1ccc(-n2nc3c(=O)n(CCCC(=O)NCC(C)c4ccccc4)nc(C)c3c2C)cc1 (stereo unspecified)	inconclusive: 3.16 µM [inhibitor, partial curve, poor fit]	
Cc1sc2nc(-c3cccnc3)nc(Cl)c2c1-c1ccccc1		inactive: -13.7%
CCn1cc(C(=O)N2CCN(c3ccccn3)CC2)c(=O)c2cc(S(=O)(=O)N(C)C3CCCCC3)ccc21	inconclusive: 3.16 µM [inhibitor, partial curve, poor fit]	
Cc1onc(-c2ccc3c(c2)OCO3)c1-c1ccc2[nH]ccc2c1	inconclusive: 12.6 µM [inhibitor, single point]	
COc1ccc(C(=O)Nc2ccc(C(F)(F)F)n(C)c2=O)cc1		inactive: 0.524%
CC[C@]12c3[nH]c4ccc(Cl)cc4c3CCN1C(=O)[C@@H](CC(=O)NCc1cccc(C(F)(F)F)c1)C[C@@H]2C(=O)N1CCN(C(=O)c2ccco2)CC1	inconclusive: 10 µM [inhibitor, single point]	
Cc1ccc2ccc3ccc(C)nc3c2n1	inconclusive: 0.0141 µM [inhibitor, full curve, poor fit]	
COc1ccccc1NC(=O)C(=O)N/N=C/c1ccc([N+](=O)[O-])s1	inconclusive: 2.51 µM [inhibitor, partial curve, poor fit]	
COC(=O)CSC1=C(C#N)C(c2cccc(OC)c2)CC(=O)N1 (stereo unspecified)	inconclusive: 28.2 µM [inhibitor, single point]	
COc1ccc(C(=O)NCCN(C)C)c2nc3ccccc3cc12		inactive: -11.6%
COc1ccc(-n2c(-c3ccc(Cl)cc3)c[n+]3c2CCCCC3)cc1	inconclusive: 11.2 µM [inhibitor, partial curve, poor fit]	
C=CC(=O)Nc1ccc(N(C)c2ccnc(Nc3ccc(N4CCN(C)CC4)cc3)n2)cc1	inconclusive: 12.6 µM [inhibitor, single point]	
O=C(OCc1ccccc1)C1=NNC2C(=O)N(Cc3ccccc3)C(=O)C12 (stereo unspecified)		inactive: -0.311%
COc1ccc(-c2coc3cc(O[C@@H]4O[C@H](CO)[C@@H](O)[C@H](O)[C@H]4O)ccc3c2=O)cc1	inconclusive: 10 µM [inhibitor, partial curve, poor fit]	
COc1ccccc1Nc1nc(N)nc(CN2CCC(Cc3ccccc3)CC2)n1		inactive: 1.13%
CS(=O)(=O)c1ccc(S(=O)CC(=O)Oc2ccc(Cl)cc2)c([N+](=O)[O-])c1 (stereo unspecified)	inconclusive: 8.91 µM [inhibitor, partial curve, poor fit]	
Cc1ccc(NC(=O)c2ccccc2O)cc1		inactive: -6.18%
COc1ccc(Nc2nc(N)nc(CN3CCC(Cc4ccccc4)CC3)n2)cc1	inconclusive: 12.6 µM [inhibitor, single point]	
Cn1c(-c2ccccc2F)cc2onc(-c3ccccc3)c2c1=O	inconclusive: 10 µM [inhibitor, partial curve]	

One compound at a time (already shown):
COc1ccc(-c2coc3cc(O[C@@H]4O[C@H](CO)[C@@H](O)[C@H](O)[C@H]4O)ccc3c2=O)cc1 in the list: Potency: inconclusive: 10 µM [inhibitor, partial curve, poor fit]
COc1ccc(Nc2nc(N)nc(CN3CCC(Cc4ccccc4)CC3)n2)cc1 in the list: Potency: inconclusive: 12.6 µM [inhibitor, single point]
COc1ccc(C(=O)NCCN(C)C)c2nc3ccccc3cc12 in the list: activity change, negative = inhibition: inactive: -11.6%
CS(=O)(=O)c1ccc(S(=O)CC(=O)Oc2ccc(Cl)cc2)c([N+](=O)[O-])c1 (stereo unspecified) in the list: Potency: inconclusive: 8.91 µM [inhibitor, partial curve, poor fit]

Remaining list, next part:

Structure (SMILES)	Potency	activity change, negative = inhibition
CCN(CC)CCCN=C1N[C@@H](c2cccc(F)c2)C(C(=O)OC)=C(C)N1Cc1ccccc1	inconclusive: 6.31 µM [inhibitor, single point]	
Cc1cccc(/C=C/c2onc(C)c2S(=O)(=O)N2CCC(C(=O)N3CCCCC3)CC2)c1		inactive: -15.3%
O=C(C1=C[C@@H](c2ccc(C(F)(F)F)cc2)C[C@@H](OCCCCO)O1)N1CCN(Cc2ccc3c(c2)OCO3)CC1	inconclusive: 12.6 µM [inhibitor, single point]	
CC[C@]1(C(=O)OC)[C@H]2C(=O)N(C)C(=O)[C@H]2[C@H]2CN=C(SCc3ccc(C#N)cc3)N21		inactive: 19.6%
N#C/C(=C(/O)COC(=O)CSc1ccc2ccccc2c1)c1nc2ccccc2[nH]1	inconclusive: 28.2 µM [inhibitor, single point]	
CN(C)c1ccc(C(=O)Nc2cccc(S(=O)(=O)NC3=NCCCCC3)c2)cc1	inconclusive: 5.01 µM [inhibitor, partial curve, poor fit]	
COc1cccc(NC(=O)c2cccc(Cl)c2)c1	inconclusive: 5.01 µM [inhibitor, partial curve, poor fit]	
Cc1ccc2ncccc2c1N		inactive: 3.67%
COc1cc2cnc(-c3ccccc3)c(C(=O)c3ccc(F)cc3)c2cc1OC	inconclusive: 5.62 µM [inhibitor, partial curve, poor fit]	
CN(CCNC(=O)c1cc2c(=O)n(C)c3ccccc3c2n1C)Cc1ccccc1	inconclusive: 20 µM [inhibitor, single point]	
O=C(Cn1cnc2c(NCc3ccccc3)ncnc21)NCc1ccccc1	inconclusive: 2.51 µM [inhibitor, full curve, poor fit]	
O=S(=O)(Nc1cccc(-c2cn3cccnc3n2)c1)c1ccc(Cl)cc1		inactive: 5.94%
O=C1C=C(c2ccnc3cc(Cl)ccc23)C[C@@H](c2ccc3c(c2)OCO3)C1	inconclusive: 11.2 µM [inhibitor, single point]	
O=C(COc1ccc2ccccc2c1)Nc1ccc2c3c(cccc13)CC2	inconclusive: 1.58 µM [inhibitor, full curve, poor fit]	
Nc1cc(Oc2ccc(Cl)cc2Cl)nc(N)n1		inactive: -0.0698%
O=C(NCC(c1cccs1)N1CCOCC1)c1ccccc1NS(=O)(=O)c1ccc(Cl)c([N+](=O)[O-])c1 (stereo unspecified)	inconclusive: 3.16 µM [inhibitor, partial curve, poor fit]	
CCOC(=O)c1cc(C(=O)OCC)c(=O)[nH]c1SCc1ccccc1	inconclusive: 1.78 µM [inhibitor, single point]	
COc1ccc(NC(=O)CN(C)C(=O)c2cc(-c3ccc(OC)cc3)nc3ccccc23)cc1		inactive: 2.86%
Cc1c(C)c2ccc(OCC(=O)Nc3ccccn3)c(C)c2oc1=O	inconclusive: 0.355 µM [inhibitor, full curve, poor fit]	
O=C(Nc1ccc(N2CCOCC2)c(S(=O)(=O)Nc2ccccc2Cl)c1)c1ccc(=O)[nH]n1		inactive: -2.51%
O=C(NCCCN1CCOCC1)c1cccc(NS(=O)(=O)c2ccc(Br)cc2)c1	inconclusive: 2.24 µM [inhibitor, full curve]	
O=C(CCc1nc(-c2ccc(F)cc2)no1)NCc1ccccc1CN1CCOCC1		inactive: 2.61%

Structure (SMILES)	Potency	activity change, negative = inhibition
COc1cc(C(=O)NCCOc2ccccc2)cc(OC)c1OC		inactive: 8.65%
Cc1nn(C)cc1NC(=O)Cn1nc(C(F)(F)F)cc1C1CC1		inactive: 8.27%
O=C1/C(=C\c2cccnc2)CCc2ccccc21		inactive: -5.43%
N#Cc1c(NCCCO)nc(-c2ccco2)c2c1CCCC2		inactive: -2.75%
CC(=O)c1c(-c2ccccc2)c2cc([N+](=O)[O-])ccc2[nH]c1=O	inconclusive: 6.31 µM [inhibitor, partial curve, poor fit]	
COc1cc2c(cc1OC)C(C)N(CC(=O)Nc1ccc(S(=O)(=O)N3CCCC3)cc1)CC2 (stereo unspecified)	inconclusive: 3.55 µM [inhibitor, single point]	
O=C(CCCN1C(=O)/C(=C/c2ccccc2Cl)SC1=S)NNC(=O)c1cccnc1	inconclusive: 10 µM [inhibitor, partial curve, poor fit]	
Cc1ccc(-c2nc(-c3ccccc3)no2)c(Cl)c1	inconclusive: 0.891 µM [inhibitor, full curve, poor fit]	
Cc1ccc(S(=O)(=O)N2CN(CC3CCCO3)c3nc4ccccc4nc32)c(C)c1 (stereo unspecified)		inactive: 0.488%
Cc1c(C(=O)NCCCN2CCCCC2)oc2ccc3c(c12)C(O)CC1(CCCCC1)O3 (stereo unspecified)	inconclusive: 7.94 µM [inhibitor, single point]	
COc1ccc2c(c1)[C@H]1[C@H](CO2)[C@H](c2ccccc2)[C@]2(C)C(=O)Nc3cc(OC)c(OC)cc3C(=O)N12	inconclusive: 4.47 µM [inhibitor, partial curve]	
N#Cc1ccsc1NC(=O)c1ccc(Cl)c([N+](=O)[O-])c1	inconclusive: 7.08 µM [inhibitor, single point]	
CCC(=O)Nc1ccc2nn(-c3ccc(F)cc3)nc2c1	inconclusive: 14.1 µM [inhibitor, partial curve, poor fit]	
CCN1C(=O)N[C@@H](c2ccc(Br)cc2)C(C(=O)OC)=C1C		inactive: 12.2%
COC(=O)Cc1c(C)nc2nc(-c3ccccc3)[nH]n2c1=O		inactive: -1.89%
COc1ccc(-n2c(C)cc(C(=O)CN3C(=O)NC4(CCCc5sccc54)C3=O)c2C)cc1 (stereo unspecified)	active: 11.2 µM	
Cn1c(C(=O)N2CCCC(C(=O)NCCc3ccccc3)C2)cc2sccc21 (stereo unspecified)	inconclusive: 12.6 µM [inhibitor, single point]	
CCOc1ccccc1OCCCC(=O)Nc1cccc(S(=O)(=O)N2CCOCC2)c1	inconclusive: 3.16 µM [inhibitor, partial curve, poor fit]	
CCC1(c2ccccc2)ON(c2c(Br)cccc2Br)C1=O (stereo unspecified)	inconclusive: 10 µM [inhibitor, partial curve]	
O=C(Nc1ccccc1OC(=O)c1ccccc1)c1ccccc1	active: 11.2 µM	
CCOC(=O)/C=C/C(=O)OCC(=O)N1CCN(C(=O)c2ccco2)CC1	active: 7.94 µM	
CC(C)=CCOc1ccc([C@@H]2COc3c(ccc4c3C=CC(C)(C)O4)C2)c(O)c1	inconclusive: 20 µM [inhibitor, single point]	
